Results deposited as PubChem BioAssay AID686943 (Drosophila RNAi Screening Center, 2013)
The deposit covers about 23,000 reagents; shown is an unselected part of those with a known target gene and a result. 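Extra replicates exist only for a retested subset of genes; insulin dose and duration not given; both raised and lowered dpERK matter.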 A plus sign joins genes that one reagent is predicted to hit. Further read-outs or replicates are left out here. Not stated in the record: the amount of reagent, the time to read-out.

Screen: 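Search across the genome for regulators of signalling from receptor tyrosine kinase to ERK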 (primary screen)
Cells: Drosophila S2R+ haemocyte-like cells expressing YFP-tagged ERK (Rolled)
Reagents: long dsRNA against Drosophila genes
Challenge: insulin stimulation versus unstimulated cells; dose and duration not given
Read-out: 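Antibody staining for doubly phosphorylated ERK divided by ERK-YFP signal, as plate z-scores, in insulin-treated and untreated cells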
Direction: replicate 1, z-score of dpERK with insulin and replicate 2, z-score of dpERK with insulin: higher = more active ERK per ERK-YFP after insulin

CG8563 [DRSC10996] → replicate 1, z-score of dpERK with insulin: 0.08; replicate 2, z-score of dpERK with insulin: 0.8
tut (tumorous testis) [DRSC08909] → replicate 1, z-score of dpERK with insulin: -0.89; replicate 2, z-score of dpERK with insulin: -0.03
CG44774 [DRSC18342] → replicate 1, z-score of dpERK with insulin: -0.06; replicate 2, z-score of dpERK with insulin: 0.51
Taz (Tafazzin) [DRSC07704] → replicate 1, z-score of dpERK with insulin: 0.2; replicate 2, z-score of dpERK with insulin: 0.25
Taz (Tafazzin) [DRSC22625] → replicate 1, z-score of dpERK with insulin: 0.34; replicate 2, z-score of dpERK with insulin: -0.53
CG3065 [DRSC04333] → replicate 1, z-score of dpERK with insulin: -0.09; replicate 2, z-score of dpERK with insulin: 0.72
CG14125 [DRSC10129] → replicate 1, z-score of dpERK with insulin: -0.18; replicate 2, z-score of dpERK with insulin: 0.13
Gfat2 (Glutamine:fructose-6-phosphate aminotransferase 2) [DRSC14598] → replicate 1, z-score of dpERK with insulin: 0.33; replicate 2, z-score of dpERK with insulin: -0.59
Tao [DRSC19573] → replicate 1, z-score of dpERK with insulin: 1.24; replicate 2, z-score of dpERK with insulin: -1.07
Tao [DRSC19574] → replicate 1, z-score of dpERK with insulin: -1.78; replicate 2, z-score of dpERK with insulin: -0.07
Tao [DRSC22639] → replicate 1, z-score of dpERK with insulin: 1.1; replicate 2, z-score of dpERK with insulin: 1.34
Mvb12 (Multivesicular body subunit 12) [DRSC20027] → replicate 1, z-score of dpERK with insulin: -0.36; replicate 2, z-score of dpERK with insulin: -0.68
CG32633 [DRSC18987] → replicate 1, z-score of dpERK with insulin: 0.01; replicate 2, z-score of dpERK with insulin: -0.27
CG31244 [DRSC21589] → replicate 1, z-score of dpERK with insulin: -0.55; replicate 2, z-score of dpERK with insulin: -0.69
Hat1 (Histone acetyltransferase 1) [DRSC12298] → replicate 1, z-score of dpERK with insulin: 0.35; replicate 2, z-score of dpERK with insulin: 0.6
GluRIIA (Glutamate receptor IIA) [DRSC03334] → replicate 1, z-score of dpERK with insulin: 0.06; replicate 2, z-score of dpERK with insulin: 0.19
CG14245 [DRSC14740] → replicate 1, z-score of dpERK with insulin: 0.32; replicate 2, z-score of dpERK with insulin: 0
ca (claret) [DRSC15305] → replicate 1, z-score of dpERK with insulin: -1.12; replicate 2, z-score of dpERK with insulin: -0.12
ca (claret) [DRSC15306] → replicate 1, z-score of dpERK with insulin: 0.16; replicate 2, z-score of dpERK with insulin: 0.28
ca (claret) [DRSC16314] → replicate 1, z-score of dpERK with insulin: -0.66; replicate 2, z-score of dpERK with insulin: 0.32
Txl (Thioredoxin-like) [DRSC11310] → replicate 1, z-score of dpERK with insulin: 0.07; replicate 2, z-score of dpERK with insulin: -0.76
Mettl3 (Methyltransferase like 3) [DRSC15921] → replicate 1, z-score of dpERK with insulin: 0.01; replicate 2, z-score of dpERK with insulin: 0.08
CG9394 [DRSC04550] → replicate 1, z-score of dpERK with insulin: 1.16; replicate 2, z-score of dpERK with insulin: 0.69
CG32727 [DRSC17519] → replicate 1, z-score of dpERK with insulin: -0.24; replicate 2, z-score of dpERK with insulin: -0.34
Cat (Catalase) [DRSC11110] → replicate 1, z-score of dpERK with insulin: -0.11; replicate 2, z-score of dpERK with insulin: -0.52
CG43292 [DRSC08883] → replicate 1, z-score of dpERK with insulin: 0.24; replicate 2, z-score of dpERK with insulin: 0.08
CG43292 [DRSC21542] → replicate 1, z-score of dpERK with insulin: 0.29; replicate 2, z-score of dpERK with insulin: 0.92
Sprn (Spermitin) [DRSC10132] → replicate 1, z-score of dpERK with insulin: 0.26; replicate 2, z-score of dpERK with insulin: 0.45
zfh1 (Zn finger homeodomain 1) [DRSC14014] → replicate 1, z-score of dpERK with insulin: -0.77; replicate 2, z-score of dpERK with insulin: -0.51
zfh1 (Zn finger homeodomain 1) [DRSC17098] → replicate 1, z-score of dpERK with insulin: -3.52; replicate 2, z-score of dpERK with insulin: -5.98
SiaT (Sialyltransferase) [DRSC04494] → replicate 1, z-score of dpERK with insulin: -0.02; replicate 2, z-score of dpERK with insulin: 1.56
CG5721 [DRSC06945] → replicate 1, z-score of dpERK with insulin: -0.04; replicate 2, z-score of dpERK with insulin: -0.11
CG42538 [DRSC09412] → replicate 1, z-score of dpERK with insulin: -0.08; replicate 2, z-score of dpERK with insulin: -0.6
l(2)03659 (lethal (2) 03659) [DRSC07269] → replicate 1, z-score of dpERK with insulin: -0.16; replicate 2, z-score of dpERK with insulin: -0.18
l(2)03659 (lethal (2) 03659) [DRSC07638] → replicate 1, z-score of dpERK with insulin: -0.53; replicate 2, z-score of dpERK with insulin: 0.3
ovm + CG31975 [DRSC22146] → replicate 1, z-score of dpERK with insulin: 3.19; replicate 2, z-score of dpERK with insulin: 0.16
CG4880 [DRSC19923] → replicate 1, z-score of dpERK with insulin: -0.28; replicate 2, z-score of dpERK with insulin: 0.53
nur (nemuri) [DRSC01342] → replicate 1, z-score of dpERK with insulin: 0.68; replicate 2, z-score of dpERK with insulin: -0.22
Scgdelta (Sarcoglycan delta) [DRSC18544] → replicate 1, z-score of dpERK with insulin: 0.38; replicate 2, z-score of dpERK with insulin: 0.65
GCS2alpha (Glucosidase 2 alpha subunit) [DRSC21036] → replicate 1, z-score of dpERK with insulin: 0.77; replicate 2, z-score of dpERK with insulin: -0.48

Only “replicate 1, z-score of dpERK with insulin” (4 entries from above):
CG32633 [DRSC18987] = 0.01
CG31244 [DRSC21589] = -0.55
Hat1 (Histone acetyltransferase 1) [DRSC12298] = 0.35
GluRIIA (Glutamate receptor IIA) [DRSC03334] = 0.06
